These are yes or no findings as the source states them, for the method shown. In cells and extracts the contact can be indirect. Some entries that bind do so weakly or less than the wild type. Blank lines part the entries; values can stand above or below the substance they belong to.
What was measured:
[1] = target: Flag-YWHAZ (UniProt P63104); experiment: co-IP; HEK293T cells overexpressing HA-ENO1 with Flag-YWHAZ vector, WT or K138R; IP-western blot, Parkin detected in the immunoprecipitate
[2] = target: Flag-YWHAZ (UniProt P63104); experiment: co-IP; HEK293T cells transfected with Flag-YWHAZ and HA-ENO1 (full length, truncated forms or enzymatic mutants); lysates immunoprecipitated with anti-Flag, blotted with anti-HA or anti-Flag
[3] = target: Enolase 1 (ENO1), endogenous in multiple myeloma cells (human (endogenous in H929)) (UniProt P06733); experiment: co-IP; endogenous proteins in lysates of MM cells (H929); 2 µg antibody (anti-ENO1, anti-YWHAZ, anti-HDAC6) and magnetic agarose beads, 4 °C overnight; western blot
[4] = target: HDAC6, endogenous in multiple myeloma cells (human (endogenous in H929)) (UniProt Q9UBN7); experiment: as above
[5] = target: YWHAZ (14-3-3ζ), endogenous in multiple myeloma cells (human (endogenous in H929)) (UniProt P63104); experiment: as above

Protein sequences, listed by entry. Tags and fused reporters are not part of them. Lines headed by an entry give the natural chain unless they say otherwise; changes in a name come on top.
UniProt P63104: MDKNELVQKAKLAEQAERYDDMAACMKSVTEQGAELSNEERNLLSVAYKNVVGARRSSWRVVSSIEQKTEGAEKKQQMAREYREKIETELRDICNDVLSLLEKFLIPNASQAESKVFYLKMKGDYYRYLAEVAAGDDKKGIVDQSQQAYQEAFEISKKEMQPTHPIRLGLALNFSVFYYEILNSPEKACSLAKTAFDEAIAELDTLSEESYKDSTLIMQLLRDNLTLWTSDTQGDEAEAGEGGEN
UniProt P06733: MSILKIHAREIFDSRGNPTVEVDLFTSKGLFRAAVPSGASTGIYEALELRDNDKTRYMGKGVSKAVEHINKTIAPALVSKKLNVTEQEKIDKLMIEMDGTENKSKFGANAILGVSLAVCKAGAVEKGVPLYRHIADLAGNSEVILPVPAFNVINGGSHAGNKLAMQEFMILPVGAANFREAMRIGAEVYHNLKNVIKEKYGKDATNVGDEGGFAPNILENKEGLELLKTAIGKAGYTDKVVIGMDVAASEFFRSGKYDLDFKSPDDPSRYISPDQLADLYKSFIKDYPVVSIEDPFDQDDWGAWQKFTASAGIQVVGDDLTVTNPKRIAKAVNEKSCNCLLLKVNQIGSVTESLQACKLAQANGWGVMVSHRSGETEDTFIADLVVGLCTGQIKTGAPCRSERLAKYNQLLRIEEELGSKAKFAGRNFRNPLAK
UniProt Q9UBN7: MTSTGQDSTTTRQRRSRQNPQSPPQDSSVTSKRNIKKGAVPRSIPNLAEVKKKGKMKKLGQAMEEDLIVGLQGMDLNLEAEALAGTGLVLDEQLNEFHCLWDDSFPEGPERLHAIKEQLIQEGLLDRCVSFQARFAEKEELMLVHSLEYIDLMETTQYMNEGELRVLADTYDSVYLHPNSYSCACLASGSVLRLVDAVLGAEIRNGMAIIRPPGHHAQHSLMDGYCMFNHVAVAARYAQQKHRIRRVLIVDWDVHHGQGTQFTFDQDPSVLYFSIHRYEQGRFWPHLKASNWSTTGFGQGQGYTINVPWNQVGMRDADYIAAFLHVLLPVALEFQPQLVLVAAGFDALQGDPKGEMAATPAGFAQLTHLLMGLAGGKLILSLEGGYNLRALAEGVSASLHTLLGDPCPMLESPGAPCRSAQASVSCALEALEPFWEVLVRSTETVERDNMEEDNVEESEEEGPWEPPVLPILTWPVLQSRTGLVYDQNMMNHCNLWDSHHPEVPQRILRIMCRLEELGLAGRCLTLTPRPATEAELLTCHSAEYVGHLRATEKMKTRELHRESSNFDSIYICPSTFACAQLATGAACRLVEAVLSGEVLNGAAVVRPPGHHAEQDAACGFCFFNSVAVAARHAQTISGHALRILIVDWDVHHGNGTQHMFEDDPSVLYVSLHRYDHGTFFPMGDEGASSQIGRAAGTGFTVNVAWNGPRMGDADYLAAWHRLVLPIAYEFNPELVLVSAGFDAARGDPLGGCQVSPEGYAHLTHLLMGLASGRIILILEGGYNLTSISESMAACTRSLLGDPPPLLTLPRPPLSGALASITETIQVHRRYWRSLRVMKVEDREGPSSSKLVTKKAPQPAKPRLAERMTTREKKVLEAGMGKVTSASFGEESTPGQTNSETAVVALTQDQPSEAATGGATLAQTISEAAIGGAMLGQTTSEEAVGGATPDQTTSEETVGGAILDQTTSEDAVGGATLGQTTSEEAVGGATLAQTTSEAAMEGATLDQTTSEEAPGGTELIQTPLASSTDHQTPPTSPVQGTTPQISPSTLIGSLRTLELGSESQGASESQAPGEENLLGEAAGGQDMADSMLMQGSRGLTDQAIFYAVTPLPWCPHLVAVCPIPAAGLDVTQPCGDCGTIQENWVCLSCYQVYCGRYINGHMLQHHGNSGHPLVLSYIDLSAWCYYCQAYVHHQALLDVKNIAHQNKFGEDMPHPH
UniProt O60260: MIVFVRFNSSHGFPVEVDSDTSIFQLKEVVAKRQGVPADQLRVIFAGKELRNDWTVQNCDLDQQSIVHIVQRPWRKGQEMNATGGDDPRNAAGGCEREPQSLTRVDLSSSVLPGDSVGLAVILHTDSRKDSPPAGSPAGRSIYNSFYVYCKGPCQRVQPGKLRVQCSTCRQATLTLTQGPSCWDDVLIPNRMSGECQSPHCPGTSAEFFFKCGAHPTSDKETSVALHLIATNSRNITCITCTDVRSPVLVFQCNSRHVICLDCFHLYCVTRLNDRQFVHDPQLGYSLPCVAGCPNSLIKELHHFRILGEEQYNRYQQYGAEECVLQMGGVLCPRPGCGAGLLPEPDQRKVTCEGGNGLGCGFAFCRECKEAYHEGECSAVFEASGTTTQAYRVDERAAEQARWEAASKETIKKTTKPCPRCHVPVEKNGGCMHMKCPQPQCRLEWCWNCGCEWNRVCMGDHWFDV

Substance: YWHAZ (14-3-3ζ), endogenous in multiple myeloma cells (from UniProt P63104 1-245)
- binding [3]: binds
- binding [4]: binds

Substance: Enolase 1 (ENO1), endogenous in multiple myeloma cells (from UniProt P06733 1-434) (enzyme)
- binding [5]: binds

Substance: HA-ENO1 K343R (enzymatically inactive mutant, HA-Mut2) (from UniProt P06733 1-434) (enzyme)
- binding [2]: binds

Results, then the substance that gave them:

- binding [1]: binds
Substance: Parkin (from UniProt O60260 1-465) (enzyme)

- binding [2]: binds
Substance: HA-ENO1 H158A (enzymatically inactive mutant, HA-Mut1) (from UniProt P06733 1-434) (enzyme)

- binding [2]: binds
Substance: HA-tagged ENO1 (HA-ENO1), full length (from UniProt P06733 1-434) (enzyme)
